These results are taken from PMC7862700.

Amino acid sequences for entries named in this document (tags omitted). A change or cut given only in a name is not applied to a line headed by its entry.
UniProt Q9Y603: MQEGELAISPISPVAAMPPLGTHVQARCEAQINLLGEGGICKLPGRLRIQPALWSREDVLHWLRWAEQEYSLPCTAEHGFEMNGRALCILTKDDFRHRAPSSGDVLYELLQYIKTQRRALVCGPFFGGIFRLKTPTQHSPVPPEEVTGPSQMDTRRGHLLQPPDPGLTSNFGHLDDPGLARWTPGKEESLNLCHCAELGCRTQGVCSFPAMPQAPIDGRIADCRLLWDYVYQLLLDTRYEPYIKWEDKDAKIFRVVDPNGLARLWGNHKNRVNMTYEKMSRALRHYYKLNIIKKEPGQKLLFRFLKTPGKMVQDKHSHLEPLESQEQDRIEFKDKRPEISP
UniProt P41212: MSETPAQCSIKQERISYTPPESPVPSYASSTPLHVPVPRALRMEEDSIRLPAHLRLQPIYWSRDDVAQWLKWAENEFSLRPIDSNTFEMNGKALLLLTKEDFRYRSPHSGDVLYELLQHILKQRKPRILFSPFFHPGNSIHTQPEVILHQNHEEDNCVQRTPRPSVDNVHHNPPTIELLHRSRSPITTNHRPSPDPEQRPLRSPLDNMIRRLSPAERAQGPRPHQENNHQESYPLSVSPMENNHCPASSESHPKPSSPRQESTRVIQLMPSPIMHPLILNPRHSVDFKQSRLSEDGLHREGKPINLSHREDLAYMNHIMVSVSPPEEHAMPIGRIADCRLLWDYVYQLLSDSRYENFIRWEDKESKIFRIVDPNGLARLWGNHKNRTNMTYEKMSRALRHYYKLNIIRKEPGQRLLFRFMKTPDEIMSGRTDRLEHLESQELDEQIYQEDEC

Only a part is listed here, and it is no random draw. At the low end of the ranking, values are background and their order means little.

The first assay addresses ETV7 (UniProt Q9Y603). Briefly: DAPPL (digital affinity profiling via proximity ligation, sequencing). As to conditions: 10 mM Tris-HCl pH 7.5, 50 mM NaCl, 1 mM DTT, 4% glycerol, room temperature, 30 min; GST-TFs on glutathione beads, 16-mer random dsDNA library, 0.1% …; high values mean tight binding; double strand, one strand shown; scale: fold enrichment (6-mer frequency, TF over GST control).
TCATGC showed a binding signal of 1.17.

The sequence ACTCTC displayed a binding signal of 1.27.

In turn, TATGCG displayed a binding signal of 1.51.

The sequence CTGGTT showed a binding signal of 1.28.

The sequence CACAAT returned a binding signal of 0.967.

Sequence TGCGTA showed a binding signal of 1.01.

GCTCGT gave a binding signal of 1.11.

In turn, TACCAA gave a binding signal of 1.13.

In the case of CCGAAG, the binding signal amounted to 0.953.

In turn, CTGCTA showed a binding signal of 1.5.

With GATTAT, the binding signal came out at 1.18.

Regarding GGCTCA, the binding signal was found to be 1.15.

For TAATAG, the binding signal came to 1.2.

With AGCCCC, the binding signal stood at 0.951.

Take TCGACT: the binding signal was found to be 1.32.

TATTGG yielded a binding signal of 1.19.

The sequence ACATTC displayed a binding signal of 1.31.

Take TTGGGT: the binding signal amounted to 1.08.

Regarding TGAAAA, the binding signal is 1.07.

For the sequence TAGCCC, the binding signal was determined as 1.05.

Take GAACCA: the binding signal was 0.938.

ATGGAA returned a binding signal of 1.35.

For a further assay, the target named is ETV6 (UniProt P41212). The description is as above. The settings on record: 10 mM Tris-HCl pH 7.5, 50 mM NaCl, 1 mM DTT, 4% glycerol, room temperature, 30 min; GST-TFs on glutathione beads, 16-mer random dsDNA library, 0.1% …; high values mean tight binding; double strand, one strand shown; scale: fold enrichment (6-mer frequency, TF over GST control).
Sequence TCATGC registered a binding signal of 1.11.

The sequence GATATA yielded a binding signal of 1.12.

In turn, GTTTAA displayed a binding signal of 1.13.

In turn, ACTCTC came in with a binding signal of 1.33.

For TATGCG, the binding signal is 1.22.

The sequence TTCCCT returned a binding signal of 1.66.

Turning to CTGGTT, the binding signal was determined as 1.32.

Consider CCTCAT, for which the binding signal was 1.39.

CGGCTA yielded a binding signal of 1.27.

As to CACAAT, the binding signal was found to be 1.09.

TACTGG had a binding signal of 1.15.

Sequence GAAGTT had a binding signal of 1.93.

For the sequence TGCGTA, the binding signal was determined as 1.11.

In the case of GCTCGT, the binding signal amounted to 1.16.

Sequence TATTAT yielded a binding signal of 1.3.

Take TTTAGG: the binding signal was determined as 1.19.

For TACCAA, the binding signal came to 1.17.

The sequence CCGAAG registered a binding signal of 0.974.

As to CTGCTA, the binding signal stood at 1.39.

Take TATCGA: the binding signal came to 1.35.

Consider GATTAT, for which the binding signal stood at 1.12.

For the sequence TTCCCC, the binding signal is 1.73.

As to GGCTCA, the binding signal worked out at 1.26.

TAATAG had a binding signal of 1.14.

In turn, AGCCCC came in with a binding signal of 1.12.

For the sequence TCGACT, the binding signal was found to be 1.35.

CCGGAA yielded a binding signal of 6.11.

Sequence CTGCAC registered a binding signal of 1.24.

With TATTGG, the binding signal was 1.21.

AAATTC registered a binding signal of 1.31.

Sequence GTCCTA displayed a binding signal of 1.13.

ACATTC registered a binding signal of 1.4.

In turn, TTGGGT showed a binding signal of 0.994.

Sequence TTGATA returned a binding signal of 1.14.

TGAAAA gave a binding signal of 0.995.

Take TAGCCC: the binding signal turned out to be 1.04.

For the sequence GAACCA, the binding signal came out at 0.959.

The sequence CTATAA displayed a binding signal of 1.16.

ATGGAA yielded a binding signal of 1.28.
